This is an account of results in paper PMC10754819.

Chains of the proteins cited; added tags and fusions are not shown.
UniProt Q9VCE6: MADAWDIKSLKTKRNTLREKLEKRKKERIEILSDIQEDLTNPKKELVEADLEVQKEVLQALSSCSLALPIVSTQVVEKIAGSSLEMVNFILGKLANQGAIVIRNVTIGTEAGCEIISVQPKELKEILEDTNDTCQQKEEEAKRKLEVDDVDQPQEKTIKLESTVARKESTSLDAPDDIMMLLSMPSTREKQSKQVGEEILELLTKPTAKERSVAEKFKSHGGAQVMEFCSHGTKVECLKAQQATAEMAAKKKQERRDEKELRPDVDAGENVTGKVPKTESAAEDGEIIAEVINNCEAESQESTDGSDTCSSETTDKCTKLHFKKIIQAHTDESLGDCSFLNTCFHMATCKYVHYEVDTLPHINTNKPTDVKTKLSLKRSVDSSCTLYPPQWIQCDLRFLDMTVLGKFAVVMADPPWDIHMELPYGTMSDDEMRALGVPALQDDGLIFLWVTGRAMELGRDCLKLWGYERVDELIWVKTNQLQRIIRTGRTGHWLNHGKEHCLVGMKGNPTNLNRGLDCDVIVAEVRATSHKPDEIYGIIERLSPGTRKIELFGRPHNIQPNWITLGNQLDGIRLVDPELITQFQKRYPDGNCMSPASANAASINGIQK
UniProt Q9NFU0: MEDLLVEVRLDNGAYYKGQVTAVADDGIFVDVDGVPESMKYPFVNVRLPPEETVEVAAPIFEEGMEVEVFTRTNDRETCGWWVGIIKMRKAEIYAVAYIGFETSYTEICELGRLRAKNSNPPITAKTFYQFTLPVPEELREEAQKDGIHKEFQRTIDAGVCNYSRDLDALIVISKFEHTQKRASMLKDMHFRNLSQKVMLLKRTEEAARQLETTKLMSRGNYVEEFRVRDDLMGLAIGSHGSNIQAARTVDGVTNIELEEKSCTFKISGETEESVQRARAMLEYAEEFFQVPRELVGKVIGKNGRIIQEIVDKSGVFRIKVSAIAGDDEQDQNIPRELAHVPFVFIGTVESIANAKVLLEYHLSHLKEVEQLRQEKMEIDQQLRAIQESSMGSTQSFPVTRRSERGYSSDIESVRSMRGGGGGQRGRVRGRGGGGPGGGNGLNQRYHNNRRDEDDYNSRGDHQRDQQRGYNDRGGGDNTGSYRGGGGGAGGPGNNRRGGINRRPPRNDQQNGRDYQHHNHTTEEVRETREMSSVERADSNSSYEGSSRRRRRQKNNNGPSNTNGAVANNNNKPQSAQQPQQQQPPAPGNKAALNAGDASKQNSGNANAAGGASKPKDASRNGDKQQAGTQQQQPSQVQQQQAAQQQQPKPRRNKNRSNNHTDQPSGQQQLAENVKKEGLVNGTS

No constants are given. Whether binding was seen depends on the method and setting. Binding seen in cells or lysates may run through a third protein. Where a sequence is shown, tags or fusion partners need not be part of it.

B1: Ythdc1 (protein, UniProt Q9VZQ1 1-721)
chain: MPRAARKQTLPMREMADLDAVHLGLDENEADIAEELQDFEFNTRSEASESNGGDSSDSEPSISSVSTATSSLAGSSKRKTKKPAKQSPQPAVETKSSKSSAKNKAKREPTPEELNGGKKKKRTDSGTKKTTSSEASDKVKSKSPDTEDRQPSAKKSRTKIPSNANDSAGHKSDLSEAEDEKPSLPTLESDSESSDSDSGTQHKRNGGNGGGNGRGKPSSKSSTPEKDSVGGGTHSHSQKGYDYMTKLNYLFRDTRFFLIKSNNSDNVQLSKNKSVWATLPQNDANLNQAFKEARNVLLIFSVNESGKFAGFARMAAPSRRDIPQVAWVLPPSISPKALGGVIELDWICRKELSFNATLHLHNTWNEGKPVKIGRDGQEIEPKIGGELCRLFPEDEQIELTPILKKSKETARVMREKGIHVIYKPPRSLSSRGHGGGGRGGGRGSNHDHLGPMRHKRSYHGAPHHRPYRHHHGMGLPPGGGFKRSGSPYRQMGGAAGAPPGGPGDMAMPSWERYMSSAAAAEAYVADYMRNMHGQLPPLPFVPPFAQLPIPGAGAGAAGALPPGAAAAMYEQLPPPVRYYDGPGAPPLPDYPPPQRPPPPGFDKAPSYEEFAAWKNAGLPTVPPPGFPVYGGAANGGSNGAGGLAAAQAAAAGGGMGAGGGSGGGMGGPGGYRNRDGNNGSAGGRRREYGNRSGGGGSSRDSRPFRERGGGGGQRSYRDNRR

This test concerns the target T1, dTrmt10A-FLAG-HA (Drosophila Trmt10A, CG14618) (Drosophila) (UniProt Q9VR56).
T1 sequence: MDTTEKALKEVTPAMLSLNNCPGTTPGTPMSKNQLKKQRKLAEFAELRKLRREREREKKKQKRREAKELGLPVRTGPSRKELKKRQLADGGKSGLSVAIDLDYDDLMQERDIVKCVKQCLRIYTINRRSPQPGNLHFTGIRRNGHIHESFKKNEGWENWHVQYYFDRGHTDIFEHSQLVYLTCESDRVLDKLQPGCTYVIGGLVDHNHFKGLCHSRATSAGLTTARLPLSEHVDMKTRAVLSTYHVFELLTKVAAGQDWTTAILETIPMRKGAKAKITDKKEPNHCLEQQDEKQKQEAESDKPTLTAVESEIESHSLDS
Kind of test: co-IP; dTrmt10A-FLAG-HA immunoprecipitated from adult fly head lysates with anti-HA antibody on agarose resin (Pierce Co-IP kit), mouse IgG as control; immunoblotting (Supplementary Fig. 4).
Regarding “Mettl3 (from UniProt Q9VCE6 1-608) (enzyme)”, the binding result is given as “no binding”.

Consider Fmr1 (from UniProt Q9NFU0 1-684), for which the binding entry was “no binding”. On to B1, for which the binding entry was “no binding”.
